# Reference: the supplement of paper PMC8728848
# The other results are listed elsewhere or left out.
# B1: GS7807F-bth-514-18-514 (Bacteroides thetaiotaomicron) (protein)
# chain: AGSCTGNFEEYNTNQFQIHEADPSTLMKSMIETIVNIQQNDSQMMDQMVGQLGGYLTCANVWSGTNFGTFNQSDAWNAGPWNTNFEKIYGNFFQIQEATNESGHYYAFARMIRAITMLRVADCYGPMPYSQVKKGNFYVAYDTEEQVYKNIMEDFASAANVLYNYYKDTNGNAPLASNDPVFSGNYANWARLANSMRLRVAIRISTAYPEMAKENAEAAASHEAGLIEANNDNAMMDCGSQTNPYQLAAVSWGDLRVNANIVDYMNGYGDPRMSKYFNHSTFTGHTQEYVGMRSGEDGFAKSDVAGYSIPAITGTSKLLVFCAAETAFLRAEGKLKNWSVGNKSAKEYYEEGIKLSMEQYGTTMPDNYLTNTEKPTVSHNNDPRGHAYTISNTVAVAWNDNNEEENLQRIITQKWIANYPLGLEAWAEYRRTGYPELYPCIDNLSPSGVDSKRGMRRLRFPYTEVQNNHSNYQQGVSYLKNGGPDNEATDLSWGKTN
# Legend:
# Assay in all cases: glycan array binding signal (z-score within array); higher = stronger binding
# Conditions in all cases: glycan notation: IUPAC condensed, linker removed
# [1] = molecular target: Gal3S6S(b1-4)GlcNAc
# Procedure, shortened: (§1)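 The Consortium for Functional Glycomics database supplied 3228 glycan arrays, of which those lacking an available protein sequence were dropped. The binding signal, a within-array Z-score, was averaged across arrays of the same protein sequence and across linkers. Negative scores can be read as non-binding.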
# [2] = molecular target: Gal3S6S(b1-4)GlcNAc6S
# Procedure, shortened: as §1
# [3] = molecular target: Gal4S(b1-4)GlcNAc
# Procedure, shortened: as §1
# [4] = molecular target: Gal4S6S(b1-4)GlcNAc
# Procedure, shortened: as §1
# [5] = molecular target: Gal6P(b1-4)GlcNAc
# Procedure, shortened: as §1
# [6] = molecular target: Gal6S(b1-3)GlcNAc
# Procedure, shortened: as §1
# [7] = molecular target: Gal6S(b1-3)GlcNAc6S
# Procedure, shortened: as §1
# [8] = molecular target: Gal6S(b1-4)Glc
# Procedure, shortened: as §1
# [9] = molecular target: Gal6S(b1-4)Glc6S
# Procedure, shortened: as §1
# [10] = molecular target: Gal6S(b1-4)GlcNAc
# Procedure, shortened: as §1
# [11] = molecular target: Gal6S(b1-4)GlcNAc6S
# Procedure, shortened: as §1
# [12] = molecular target: GalNAc(a1-3)Gal
# Procedure, shortened: as §1
# [13] = molecular target: GalNAc(a1-3)GalNAc
# Procedure, shortened: as §1
# [14] = molecular target: GalNAc(a1-3)GalNAc(b1-3)Gal(a1-4)Gal(b1-4)Glc
# Procedure, shortened: as §1
# [15] = molecular target: GalNAc(a1-3)GalNAc(b1-3)Gal(a1-4)Gal(b1-4)GlcNAc
# Procedure, shortened: as §1
# [16] = molecular target: GalNAc(b1-3)Gal
# Procedure, shortened: as §1
# [17] = molecular target: GalNAc(b1-3)Gal(a1-4)Gal(b1-4)GlcNAc
# Procedure, shortened: as §1
# [18] = molecular target: GalNAc(b1-3)Gal(a1-4)Gal(b1-4)GlcNAc(b1-3)Gal(b1-4)Glc
# Procedure, shortened: as §1
# [19] = molecular target: GalNAc(b1-3)Gal(a1-6)Gal(b1-4)Glc
# Procedure, shortened: as §1
# [20] = molecular target: GalNAc(b1-3)GalNAc
# Procedure, shortened: as §1
# [21] = molecular target: GalNAc(b1-3)GlcNAc
# Procedure, shortened: as §1
# [22] = molecular target: GalNAc(b1-4)Gal(b1-4)Glc
# Procedure, shortened: as §1
# [23] = molecular target: GalNAc(b1-4)GlcNAc
# Procedure, shortened: as §1
# [24] = molecular target: GalNAc(b1-4)GlcNAc(b1-2)Man
# Procedure, shortened: as §1
# [25] = molecular target: GalNAc(b1-4)GlcNAc(b1-2)Man(a1-3)[GalNAc(b1-4)GlcNAc(b1-2)Man(a1-6)]Man(b1-4)GlcNAc(b1-4)GlcNAc
# Procedure, shortened: as §1
# [26] = molecular target: GalNAc(b1-4)GlcNAc(b1-3)GalNAc(b1-4)GlcNAc
# Procedure, shortened: as §1
# [27] = molecular target: GalNAc(b1-4)GlcNAc6S
# Procedure, shortened: as §1
# [28] = molecular target: GalNAc(b1-6)GalNAc
# Procedure, shortened: as §1
# [29] = molecular target: GalNAc3S(b1-4)GlcNAc
# Procedure, shortened: as §1
# [30] = molecular target: GalNAc3S(b1-4)GlcNAc3S
# Procedure, shortened: as §1
# [31] = molecular target: GalNAc3S(b1-4)[Fuc(a1-3)]GlcNAc
# Procedure, shortened: as §1
# [32] = molecular target: GalNAc4S6S(b1-4)GlcNAc
# Procedure, shortened: as §1
# [33] = molecular target: GalNAc6S(b1-4)GlcNAc
# Procedure, shortened: as §1
# [34] = molecular target: Glc(a1-4)Glc
# Procedure, shortened: as §1
# [35] = molecular target: Glc(a1-4)Glc(a1-4)Glc(a1-4)Glc
# Procedure, shortened: as §1
# [36] = molecular target: Glc(a1-6)Glc(a1-6)Glc
# Procedure, shortened: as §1
# [37] = molecular target: Glc(a1-6)Glc(a1-6)Glc(a1-6)Glc
# Procedure, shortened: as §1
# [38] = molecular target: Glc(b1-4)Glc
# Procedure, shortened: as §1
binder,measurement,setting,value
B1,glycan array binding signal (z-score),[1],-0.702
same,glycan array binding signal (z-score),[2],-0.25
same,glycan array binding signal (z-score),[3],-0.819
same,glycan array binding signal (z-score),[4],-0.896
same,glycan array binding signal (z-score),[5],-0.69
same,glycan array binding signal (z-score),[6],1.38
same,glycan array binding signal (z-score),[7],-0.844
same,glycan array binding signal (z-score),[8],0.199
same,glycan array binding signal (z-score),[9],0.513
same,glycan array binding signal (z-score),[10],0.547
same,glycan array binding signal (z-score),[11],0.008
same,glycan array binding signal (z-score),[12],0.338
same,glycan array binding signal (z-score),[13],0.13
same,glycan array binding signal (z-score),[14],0.618
same,glycan array binding signal (z-score),[15],0.982
same,glycan array binding signal (z-score),[16],-0.359
same,glycan array binding signal (z-score),[17],1.86
same,glycan array binding signal (z-score),[18],1.81
same,glycan array binding signal (z-score),[19],0.774
same,glycan array binding signal (z-score),[20],-0.68
same,glycan array binding signal (z-score),[21],-0.179
same,glycan array binding signal (z-score),[22],0.27
same,glycan array binding signal (z-score),[23],1.66
same,glycan array binding signal (z-score),[24],-0.675
same,glycan array binding signal (z-score),[25],-0.383
same,glycan array binding signal (z-score),[26],0.017
same,glycan array binding signal (z-score),[27],0.521
same,glycan array binding signal (z-score),[28],-0.841
same,glycan array binding signal (z-score),[29],-0.814
same,glycan array binding signal (z-score),[30],-0.834
same,glycan array binding signal (z-score),[31],0.749
same,glycan array binding signal (z-score),[32],-0.849
same,glycan array binding signal (z-score),[33],-0.256
same,glycan array binding signal (z-score),[34],-0.674
same,glycan array binding signal (z-score),[35],-0.429
same,glycan array binding signal (z-score),[36],-0.912
same,glycan array binding signal (z-score),[37],-0.652
same,glycan array binding signal (z-score),[38],-0.68

# A second format for part of the listing above.
binder	measurement	setting	value
B1	glycan array binding signal (z-score)	[32]	-0.849
same	glycan array binding signal (z-score)	[33]	-0.256
same	glycan array binding signal (z-score)	[34]	-0.674
